Measurements reported in the supplement of paper PMC12542422.
Counter-ions that a name gives are not always drawn. ± gives the standard deviation of the averaged measurements. Some of the results follow. These are raw signals, not scaled to a control.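 Across three biological replicates, HeLa cells were imaged for ribosome assembly using ENP1 staining (export block present or absent) or inducible tagged ribosomal protein reporters. Machine learning classified each cell's signal localization relative to DMSO controls. Hits exceeded the DMSO false-positive mean by five standard deviations and were then visually confirmed.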

Key:
[1] = tested on: HeLa K (ENP1 immunofluorescence, +LMB); assay: fraction of cells with nucleolar or nucleolar/nucleoplasmic ENP1 signal (MainHitrate); higher = more cells with nucleolar/nuclear readout signal (for ENP1 -LMB: less RNAPI inhibition; for +LMB ENP1 and RP reporters: stronger nuclear/nucleolar retention, i.e. ribosome biogenesis defect); details: concentration: 1 µM; treatment time: 6 h; ENP1 +LMB; leptomycin B: 20 nM, last 1.5 h
[2] = tested on: HeLa K (ENP1 immunofluorescence, no LMB); assay: as above; details: concentration: 1 µM; treatment time: 6 h; ENP1 -LMB; leptomycin B: none
HeLa RPS2-YFP reporter = assay: fraction of reporter-positive cells with nuclear (nucleolar or nucleolar/nucleoplasmic) RPS2-YFP (MainHitrate); higher = more cells with nucleolar/nuclear readout signal (for ENP1 -LMB: less RNAPI inhibition; for +LMB ENP1 and RP reporters: stronger nuclear/nucleolar retention, i.e. ribosome biogenesis defect); details: concentration: 1 µM; treatment time: 6 h
HeLa RPL29-GFP reporter = assay: fraction of reporter-positive cells with nuclear (nucleolar or nucleolar/nucleoplasmic) RPL29-GFP (MainHitrate); higher = more cells with nucleolar/nuclear readout signal (for ENP1 -LMB: less RNAPI inhibition; for +LMB ENP1 and RP reporters: stronger nuclear/nucleolar retention, i.e. ribosome biogenesis defect); details: concentration: 1 µM; treatment time: 6 h

Structure (SMILES) | fraction [1] | fraction [2] | fraction of reporter-positive cells with nuclear (HeLa RPS2-YFP reporter) | fraction of reporter-positive cells with nuclear (HeLa RPL29-GFP reporter)
CC1CCc2c(N3CCC(O)CC3)c(F)cc3c(=O)c(C(=O)O)cn1c23 (stereo not given) [Nadifloxacin] | 0.048 ± 0.051 | 0.991 ± 0.015 | 0.09 ± 0.1 | 0.231 ± 0.027
CC[C@H]1OC(=O)[C@H](C)[C@@H](O[C@H]2C[C@@](C)(OC)[C@@H](O)[C@H](C)O2)[C@H](C)[C@@H](O[C@@H]2O[C@H](C)C[C@H](N(C)C)[C@H]2O)[C@](C)(O)C[C@@H](C)[C@@H]2N[C@@H](COCCOC)O[C@H]([C@H]2C)[C@]1(C)O [Dirithromycin] | 0.0717 ± 0.09 | 0.993 ± 0.013 | 0.123 ± 0.1 | 0.21 ± 0.075
CN(C)CCc1c[nH]c2ccc(C[C@H]3COC(=O)N3)cc12 [Zolmitriptan (Zomig)] | 0.109 ± 0.14 | 0.9985 ± 0.0026 | 0.123 ± 0.088 | 0.23 ± 0.081
NCCS [Cysteamine HCl] | 0.0575 ± 0.061 | 0.991 ± 0.016 | 0.141 ± 0.089 | 0.22 ± 0.047
NS(=O)(=O)c1cc(C(=O)O)c(NCc2ccco2)cc1Cl [Furosemide (Lasix)] | 0.0796 ± 0.08 | 0.9944 ± 0.0097 | 0.0855 ± 0.06 | 0.212 ± 0.047
CCN(CC)CC#CCOC(=O)C(O)(c1ccccc1)C1CCCCC1 (stereo not given) [Oxybutynin (Ditropan)] | 0.117 ± 0.16 | 0.9988 ± 0.0021 | 0.113 ± 0.088 | 0.234 ± 0.064
CCc1ccc(CCOc2ccc(CC3SC(=O)NC3=O)cc2)nc1 (stereo not given) [Pioglitazone hydrochloride (Actos)] | 0.156 ± 0.24 | 0.9956 ± 0.0076 | 0.11 ± 0.056 | 0.223 ± 0.068
CC1CCc2cc(F)cc3c(=O)c(C(=O)O)cn1c23 (stereo not given) [Flumequine] | 0.131 ± 0.2 | 0.978 ± 0.039 | 0.11 ± 0.091 | 0.206 ± 0.068
CC(=O)Nc1ncc([N+](=O)[O-])s1 [Nithiamide] | 0.052 ± 0.064 | 0.989 ± 0.019 | 0.123 ± 0.077 | 0.21 ± 0.066
COC(=O)CCc1ccc(OCC(O)CNC(C)C)cc1 (stereo not given) [Esmolol HCl] | 0.099 ± 0.13 | 0.987 ± 0.022 | 0.129 ± 0.094 | 0.213 ± 0.045
Nc1[nH]cnc2ncnc1-2 [Adenine] | 0.0886 ± 0.11 | 0.989 ± 0.018 | 0.0985 ± 0.051 | 0.276 ± 0.1
CO/N=C(\C(=O)N[C@@H]1C(=O)N2C(C(=O)O)=C(CSC(=O)c3ccco3)CS[C@H]12)c1csc(N)n1 [Ceftiofur hydrochloride] | 0.151 ± 0.23 | 0.994 ± 0.011 | 0.122 ± 0.084 | 0.214 ± 0.068
CCC[C@H](N[C@@H](C)C(=O)N1[C@H](C(=O)O)C[C@@H]2CCCC[C@@H]21)C(=O)OCC [Perindopril Erbumine (Aceon)] | 0.0606 ± 0.049 | 0.997 ± 0.0053 | 0.107 ± 0.071 | 0.213 ± 0.067
C[C@@H](O)[C@H]1C(=O)N2C(C(=O)OCOC(=O)C(C)(C)C)=C(SC3CN(C4=NCCS4)C3)[C@H](C)[C@H]12 [Tebipenem pivoxil (L-084)] | 0.13 ± 0.18 | 0.9949 ± 0.0088 | 0.0953 ± 0.027 | 0.217 ± 0.056
CCC(C)(C)c1ccc(CC(C)CN2C[C@@H](C)O[C@@H](C)C2)cc1 (stereo not given in full) [Amorolfine Hydrochloride] | 0.0955 ± 0.079 | 0.9981 ± 0.0033 | 0.104 ± 0.075 | 0.237 ± 0.075
NC[C@H]1O[C@H](O[C@H]2[C@H](O)[C@@H](O[C@H]3O[C@H](CO)[C@@H](O)[C@H](N)[C@H]3O)[C@H](N)C[C@@H]2N)[C@H](N)[C@@H](O)[C@@H]1O [Bekanamycin] | 0.141 ± 0.17 | 0.9989 ± 0.0019 | 0.213 ± 0.16 | 0.319 ± 0.31
Cc1ccc(NC(=O)c2ccc(CN3CCN(C)CC3)cc2)cc1Nc1nccc(-c2cccnc2)n1 [Imatinib (Gleevec)] | 0.0816 ± 0.11 | 0.9946 ± 0.0094 | 0.0846 ± 0.055 | 0.236 ± 0.052
CC(=O)N[C@H]1[C@H]([C@H](O)[C@H](O)CO)OC(C(=O)O)=C[C@@H]1NC(=N)N [Zanamivir (Relenza)] | 0.0701 ± 0.095 | 0.992 ± 0.013 | 0.133 ± 0.1 | 0.207 ± 0.067
CN(C)CC/C=C1/c2ccccc2Sc2ccc(Cl)cc21 [Chlorprothixene] | 0.0873 ± 0.11 | 0.9989 ± 0.0019 | 0.109 ± 0.052 | 0.218 ± 0.063
C[C@@H]1C[C@H]2[C@@H]3C[C@H](F)C4=CC(=O)C=C[C@]4(C)[C@@]3(F)[C@@H](O)C[C@]2(C)[C@@]1(O)C(=O)CO [Flumethasone] | 0.09 ± 0.12 | 0.987 ± 0.023 | 0.155 ± 0.14 | 0.255 ± 0.11
COc1ccccc1OCCNCC(O)COc1cccc2[nH]c3ccccc3c12 (stereo not given) [Carvedilol] | 0.0618 ± 0.078 | 0.993 ± 0.013 | 0.13 ± 0.1 | 0.243 ± 0.077
CCCCCCNC(=O)n1cc(F)c(=O)[nH]c1=O [Carmofur] | 0.0622 ± 0.011 | 0.9992 ± 0.0013 | 0.0643 ± 0.05 | 0.252 ± 0.042
C[C@@H](O[C@H]1OCCN(Cc2nn(P(=O)(O)O)c(=O)[nH]2)[C@H]1c1ccc(F)cc1)c1cc(C(F)(F)F)cc(C(F)(F)F)c1 [Fosaprepitant dimeglumine] | 0.113 ± 0.15 | 0.979 ± 0.037 | 0.118 ± 0.1 | 0.198 ± 0.073
Clc1ccc2c(c1)CCc1cccnc1C2=C1CCNCC1 [Desloratadine] | 0.107 ± 0.16 | 0.987 ± 0.023 | 0.138 ± 0.097 | 0.205 ± 0.052
CCCCc1oc2ccc(NS(C)(=O)=O)cc2c1C(=O)c1ccc(OCCCN(CCCC)CCCC)cc1 [Dronedarone HCl (Multaq)] | 0.13 ± 0.17 | 0.991 ± 0.016 | 0.132 ± 0.066 | 0.223 ± 0.067

A draw from above in order of count of non-hydrogen atoms, rising:
Structure (SMILES) | fraction [1] | fraction [2] | fraction of reporter-positive cells with nuclear (HeLa RPS2-YFP reporter) | fraction of reporter-positive cells with nuclear (HeLa RPL29-GFP reporter)
CC1CCc2cc(F)cc3c(=O)c(C(=O)O)cn1c23 (stereo not given) [Flumequine] | 0.131 ± 0.2 | 0.978 ± 0.039 | 0.11 ± 0.091 | 0.206 ± 0.068
CCC[C@H](N[C@@H](C)C(=O)N1[C@H](C(=O)O)C[C@@H]2CCCC[C@@H]21)C(=O)OCC [Perindopril Erbumine (Aceon)] | 0.0606 ± 0.049 | 0.997 ± 0.0053 | 0.107 ± 0.071 | 0.213 ± 0.067
Cc1ccc(NC(=O)c2ccc(CN3CCN(C)CC3)cc2)cc1Nc1nccc(-c2cccnc2)n1 [Imatinib (Gleevec)] | 0.0816 ± 0.11 | 0.9946 ± 0.0094 | 0.0846 ± 0.055 | 0.236 ± 0.052
